Laboratory results taken from the supplement of paper PMC12823440, “Inhibitors supercharge kinase turnover through native proteolytic circuits” (Nature, 2025).
The other results are listed elsewhere or left out. Hit calls seldom repeat between salt and free forms of one compound.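 Kinases, fused to nanoluciferase, were expressed in K562 cells; luminescence was measured every 4 h from 2 to 18 h as percent of control (DMSO = 100%, positive control = 0%). A time point is decreased if signal falls significantly (2 sigma). Hits were called by the authors by a rule that is not shown; the count of time points alone does not decide it.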

Protein sequences, listed by entry. Tags and fused reporters are not part of them.
UniProt P50750, whole entry: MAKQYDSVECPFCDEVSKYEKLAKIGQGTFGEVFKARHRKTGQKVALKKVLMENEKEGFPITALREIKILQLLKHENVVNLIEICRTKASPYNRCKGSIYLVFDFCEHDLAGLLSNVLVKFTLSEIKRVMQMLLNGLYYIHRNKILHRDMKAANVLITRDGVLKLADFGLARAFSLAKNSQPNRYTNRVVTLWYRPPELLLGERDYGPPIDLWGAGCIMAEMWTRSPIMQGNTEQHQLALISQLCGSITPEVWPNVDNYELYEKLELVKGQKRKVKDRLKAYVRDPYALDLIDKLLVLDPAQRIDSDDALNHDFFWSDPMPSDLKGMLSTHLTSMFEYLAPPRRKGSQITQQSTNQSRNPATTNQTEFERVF

Target: CDK9 (UniProt P50750)
Experiment: number of time points (of 4; 2 h point missing) at which kinase-Nluc abundance scored as decreased, DMSO-normalised (count); higher = more persistent destabilization
Conditions: 2 µM; K562; 2-18 h

| Structure (SMILES) | number of time points |
| --- | --- |
| Cc1[nH]c(/C=C2\C(=O)Nc3ccc(F)cc32)c(C)c1C(=O)NCCN1CCCC1 [Toceranib] | 0 |
| Cc1[nH]c(/C=C2\C(=O)Nc3ccc(F)cc32)c(C)c1C(=O)NCCN1CCCC1 [Toceranib (phosphate)] | 0 |
| CCc1nc(C(N)=O)c(Nc2ccc(N3CCC(N4CCN(C)CC4)CC3)c(OC)c2)nc1NC1CCOCC1 [Gilteritinib] | 0 |
| CCc1nc(C(N)=O)c(Nc2ccc(N3CCC(N4CCN(C)CC4)CC3)c(OC)c2)nc1NC1CCOCC1 [Gilteritinib hemifumarate] | 0 |
